# Results of single-concentration screens

Protein sequences, listed by entry. Tags and fused reporters are not part of them.
UniProt P9WFT3, whole entry: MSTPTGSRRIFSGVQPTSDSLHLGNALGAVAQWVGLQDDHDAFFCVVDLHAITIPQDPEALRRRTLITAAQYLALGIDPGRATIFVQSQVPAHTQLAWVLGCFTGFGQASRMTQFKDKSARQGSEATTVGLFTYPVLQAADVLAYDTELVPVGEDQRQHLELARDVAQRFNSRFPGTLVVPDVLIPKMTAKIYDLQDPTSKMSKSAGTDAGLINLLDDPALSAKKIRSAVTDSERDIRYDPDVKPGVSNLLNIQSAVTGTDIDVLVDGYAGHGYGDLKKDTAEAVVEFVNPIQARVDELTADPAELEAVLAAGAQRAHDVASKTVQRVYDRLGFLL

Data taken from ChEMBL document CHEMBL3988442, “University of Dundee, Small-Polar-MMV Screening Library” (2021).

Values are the deposited “Percent Effect”, in %. The record does not define 0% and 100%; most values in the screen are far below 50% and negative numbers occur (in some assays of this library far below -100). Compounds were drawn at random from those tested, without regard to their results.

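Enzyme assay of tryptophanyl-tRNA synthetase; the read-out is not stated. Target: Tryptophan-tRNA ligase, Mycobacterium tuberculosis (UniProt P9WFT3). Compounds at 10 µM. Higher most likely means stronger inhibition; the record gives no direction and few retests gave an IC50. Size under these conditions: about 65,000 compounds, about 64 of them at 50% or above in at least one test.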

structure | effect
Cc1cc(=O)n2nc(Oc3ccc(C#N)cc3Cl)sc2n1 | 1.989
O=C(c1cccnc1SC/C=C/c1ccccc1)N1CCOCC(O)C1 (stereo not given) | 7.154
O=C(Nc1ccc(CCN2CCC(O)CC2)cc1)C1CCCCC1 | -3.387
CC(=O)N1CCCCC12CCCN(Cc1ccco1)C2 (stereo not given) | -6.686
Cc1cnn(CC2CCCCN2CC(=O)Nc2cccnc2)c1 (stereo not given) | -0.6365
CCNC(=O)NC(C)(C)C(=O)NCc1cccc(N2CC=CC2)c1 | 2.249
CCN(Cc1cnc(C)cn1)C1CCN(c2ccccc2)C1=O (stereo not given) | 3.374
Cc1cnn(CCC(=O)N2CCCN(c3cccnn3)CC2)c1 | 1.657
Cc1cc(C)c(C(=O)NC(CN2CCCC2)c2ccccc2)c(=O)[nH]1 (stereo not given) | 8.354
CN(C)S(=O)(=O)N1CCC[C@]2(C[C@@H](Oc3ccccn3)CO2)C1 | 0.3308
Cn1cc2c(n1)C(CNC1CCOCC1)OCC2 (stereo not given) | -4.209
CCNC(=O)N1CCC(NC(=O)NCCc2cc3ccccc3o2)C1 (stereo not given) | 2.221
COCCN1CC2(CCN(Cc3ccco3)CC2)c2ccccc21 | -5.07
COc1ccc(C(C(=O)O)N2CCC(O)(c3cccnc3)CC2)cc1Cl (stereo not given) | 2.351
Cn1cnc2c1C(COCC1CC1)CN(Cc1ccc3c(c1)OCO3)C2 (stereo not given) | 3.189
N#Cc1cc(NC(=O)c2ccccc2)ccc1N1CCC(O)CC1 | -1.78
CCn1nc(C)c(CNC(=O)c2cn(CC3CCCO3)nn2)c1C (stereo not given) | 2.664
CC(C)Cc1cc(NC(=O)N2CCC(Oc3cccnc3)C2)n(C)n1 (stereo not given) | 1.763
Cn1c(Cn2cccn2)nnc1C1CCCN(c2ccncc2F)C1 (stereo not given) | 2.59
CCc1cc(NCc2ccc(-n3cncn3)c(C)c2)n(C)n1 | -3.445
CSc1ncccc1C(=O)N1CCCC1c1ccc(C(=O)N(C)C)s1 (stereo not given) | -3.525
Cc1ocnc1CNC(=O)Nc1ccc(N2CCOC(C)C2)cc1 (stereo not given) | -0.144
Cc1nc(N)ncc1C(=O)N1CCCC1(C)C(=O)N(C)C (stereo not given) | 1.48
Cc1nc(C)c(C(=O)N2CCN(CCOc3ccccc3C)CC2)o1 | -1.374
O=C(c1ccnnc1)N1CC[C@H]2C[C@H](c3ccncn3)O[C@@H]2C1 | 2.441
O=c1c2ccccc2nc2n1C(CSc1ccc(Br)cc1)CN2 (stereo not given) | -3.288
Cc1cc(C(=O)N2CCN(c3ccncc3Cl)CC2)n(C)n1 | -2.203
CN1CCOC(CNCCCOc2ccc(C#N)cc2)C1 (stereo not given) | -1.444
CN(C)c1ccccc1C(=O)N1CCCC(c2cccc(C(=O)O)c2)C1 (stereo not given) | 5.05
CC(C)(C)C1CCC(O)(CNC(=O)CCS(C)(=O)=O)CC1 (stereo not given) | -9.391
CC1CN(c2ccc(CNC(=O)NCc3ccoc3)cn2)CCO1 (stereo not given) | -3.374
Cc1cccc(COC2COC3(CCN(S(C)(=O)=O)CC3)C2)n1 (stereo not given) | 0.9149
Cc1ccn(-c2ccc(N3CCCN(Cc4ccccc4)CC3)nn2)n1 | 119.4
N#CC1(C(=O)N2Cc3cc(-c4cc[nH]n4)ccc3C2c2cnco2)CC1 (stereo not given) | 0.3236
Cc1nn(CC(O)CN2CCC(C)CC2)c(=O)c(C#N)c1C (stereo not given) | -0.7224
O=C(NC1CCN(C2CC2)CC1)N1CCN(c2cnccn2)CC1 | -1.948
O=C(NCCCn1cncn1)N1CCCCCC1 | 1.569
Cc1ccc(S(=O)(=O)NCC(C)C#N)cc1Br (stereo not given) | -3.469
Cc1nnc([C@H]2C[C@H]3OCC[C@H]3N(S(=O)(=O)C3CC3)C2)o1 | -4.36
COc1c(C2CCCN2C(=O)c2sccc2C#N)c(C)nn1C (stereo not given) | -3.524
NC(=O)c1cccc(CCNC(=O)N2CCCC2)c1 | -1.213
CC1CCCN(c2ccccc2OCC(=O)NC2CCOCC2)C1 (stereo not given) | 17.36
Cc1ncsc1CNC(=O)NCC1(c2ccc3c(c2)OCO3)CC1 | -1.359
Cc1cc(-n2nc(C)nc2-c2cn(CCN)nn2)ccn1 | -3.913
CCc1csc(CNC(=O)C(CC)n2cccn2)n1 (stereo not given) | 4.27
Cc1nn(C)c(C)c1S(=O)(=O)NCC1CCN(c2ccccn2)CC1 | -6.25
CSc1ccc(CN(C)C(=O)c2cc3c([nH]c2=O)CCCC3=O)cc1 | -0.9676
Cc1n[nH]c(C)c1S(=O)(=O)N1CCC(Oc2ccccc2F)CC1 | -2.242
CCS(=O)(=O)NCCCNC(=O)N(C)C(C)c1ccccn1 (stereo not given) | -0.2653
O=C(c1ccoc1)N1CC[C@H]2[C@H]1CCN2CC1CC1 | -0.4361
CN(Cc1nc2ccccc2o1)CC1CCCN1c1cccnn1 (stereo not given) | 5.614
COCC(=O)NCc1cnc(C)nc1-c1cn(C)c2ccc(OC)cc12 | -0.7752
Cn1cccc(NC(=O)COc2ccc(Br)cc2)c1=O | -7.699
CS(=O)(=O)N1CC[C@H]2C[C@@H](C(=O)N3CCOCC3)O[C@@H]2C1 | -4.302
CCn1ccnc1CN1CCCN(C(=O)c2ccc(C#N)cc2)CC1 | -1.514
COc1ccc(C)cc1CN1CCN(Cc2nccn2C)C(C)C1 (stereo not given) | 0.899
COC(=O)N1CCc2ccccc2C1C(=O)NCc1ccco1 (stereo not given) | 0.228
Cc1cc(C)n(CCCN(C)C(=O)[C@H]2CCCO2)n1 | -2.166
CN(C)c1ccc(CNC(=O)NCCc2cccs2)cn1 | -0.3313
CCN(CC)c1ccc(NS(=O)(=O)c2cnn(CC)c2)cn1 | 1.751
CCN(CCn1cccn1)Cc1nc(-c2ccccc2F)oc1C | -6.256
COc1ccc(CCN2CCCC(CN(C)Cc3ccc(C)o3)C2)cc1 (stereo not given) | -1.006
CCn1cc(CN2CCCC(COc3ccccc3F)C2)cn1 (stereo not given) | 0.9272

Once more, the final 5:

{"structure": "CN(C)c1ccc(CNC(=O)NCCc2cccs2)cn1", "effect": -0.3313}
{"structure": "CCN(CC)c1ccc(NS(=O)(=O)c2cnn(CC)c2)cn1", "effect": 1.751}
{"structure": "CCN(CCn1cccn1)Cc1nc(-c2ccccc2F)oc1C", "effect": -6.256}
{"structure": "COc1ccc(CCN2CCCC(CN(C)Cc3ccc(C)o3)C2)cc1", "stereo": "stereo not given", "effect": -1.006}
{"structure": "CCn1cc(CN2CCCC(COc3ccccc3F)C2)cn1", "stereo": "stereo not given", "effect": 0.9272}